The record followed here is patent US20110183418 (published 2011).

A short description of this data set: peptide made by a vendor (Fmoc solid-phase peptide synthesis; Fmoc-Rink Amide resin; DIC/HOBt with NMM; HBTU/HOBt with NMM). Conditions: for step yield: purification step, purification yield; for final purity (method not given): scale of the general procedure 15 mmol, 1 mmol.

In turn, “Ac-Lys(MAA)-Gly-Gly-Pro-Gln-Val-Thr-Arg-Gly-Asp-Val-Phe-Thr-Met-Pro-NH2” showed a step yield of 54.4%. The same substance came in with a crude mass (whole synthesis, scale 15 mmol) of 33.0 gram. For the same substance, for the setting “whole synthesis”, the “final purity (method not given)” value is “over 90%”.

“MAA-PEO4-Lys-Gly-Gly-Pro-Gln-Val-Thr-Arg-Gly-Asp-Val-Phe-Thr-Met-Pro-NH2” showed a step yield of 25.9%. In addition, where the note is “whole synthesis”, the isolated mass turned out to be 1.035 g and the “final purity (method not given)” value was “over 90%”. The substance also registered a crude mass (whole synthesis, scale 1 mmol) of 4.0 gram.
